Patent publication EP2177533A1 (TU München, priority 2008, dated 2010)

assay: general procedure: Fmoc solid-phase peptide synthesis; Tritylchloride polystyrene TCP-resin (0.94 mmol/g); TBTU/HOBt/DIEA; settings: cyclisation step

Compared with “PEPTIDE1{[meA].Y.[dW].[meK].V.F}$PEPTIDE1,PEPTIDE1,6:R2-1:R1$$$V2.0”, “PEPTIDE1{[meA].Y.[medW].[meK].V.F}$PEPTIDE1,PEPTIDE1,6:R2-1:R1$$$V2.0” is lower in cyclisation yield: 71% for the first, 68% for the second.

Compared with “PEPTIDE1{[meA].Y.[medW].[meK].V.[meF]}$PEPTIDE1,PEPTIDE1,6:R2-1:R1$$$V2.0”, “PEPTIDE1{[MeAla].Y.[dW].K.V.F}$PEPTIDE1,PEPTIDE1,1:R1-6:R2$$$V2.0” is higher in cyclisation yield: 72% for the first, 83% for the second.

HELM strings list residues between dots; [ac] is acetyl, [am] amide, other brackets name non-standard units.
